Results from PubChem BioAssay AID1487 (National Center for Advancing Translational Sciences (NCATS), 2009).
The other results are listed elsewhere or left out. Shown are side measurements of this screen, not its main read-out; they come without a call. Compounds called inactive in the main read-out are mostly missing here. The note in brackets gives the kind of curve behind each potency; many fits are weak.

Assay: qHTS Assay for Modulators of Lamin A Splicing
Settings: HeLa LMNA splicing GFP/RFP minigene ratio, 48 h
Method in brief: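 S3 HeLa cells stably expressing lamin A-EGFP splicing minigene plus DsRed2, 600 cells/well, 48 h compound exposure at 37C. Laser-scanning cytometry; analysed as GFP (500-530 nm)/RFP (575-640 nm) total intensity ratio; 0.5% DMSO vehicle.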

[1] = measured here: RFP viability control channel
[2] = measured here: GFP splicing reporter channel

Row | Compound | AC50 [1] | AC50 [2]
1 | Cc1ccc(CNC(=O)c2cc3c(C)nc4ccccc4c3o2)cc1 | 5.01 µM [rising, full curve] | –
2 | Cc1cccc(N2CCN(C3=NC(=O)C(=C4CCCCC4)S3)CC2)c1 | 17.8 µM [rising, partial curve] | –
3 | O=C(c1cccs1)N1CCc2c([nH]c3ccccc23)C1c1ccc(Cl)cc1 (stereo not drawn) | 14.1 µM [rising, single point] | –
4 | COc1ccc(N2CCN(Cc3cc(=O)oc4ccc5ccccc5c34)CC2)cc1 | – | 2.51 µM [rising, full curve, poor fit]
5 | Cc1ccc2c(c1)N(CC(=O)N1CCN(c3nc4ccccc4s3)CC1)C(=O)C(C)O2 (stereo not drawn) | 35.5 µM [rising, single point] | –
6 | O=C(/C=C/c1ccc([N+](=O)[O-])cc1)NCCc1ccc(F)cc1 | 25.1 µM [rising, single point] | –
7 | c1cncc(CSc2ccc(-c3ccc4c(c3)OCO4)nn2)c1 | – | 0.00355 µM [rising, full curve, poor fit]
8 | O=S(=O)(Nc1cccc(-c2nc3cccnc3s2)c1)c1ccc2c(c1)CCCC2 | 22.4 µM [rising, single point] | 14.1 µM [rising, single point]
9 | Cc1ccc(NC(=O)c2ccccc2Br)cc1S(=O)(=O)N(C)C | 0.355 µM [rising, full curve, poor fit] | –
10 | COc1ccc(S(=O)(=O)N2CCOC2CNC(=O)C(=O)NCCc2c[nH]c3ccccc23)cc1C (stereo not drawn) | 14.1 µM [rising, partial curve] | –
11 | O=C(NC(NC(=S)Nc1c(Cl)cccc1Cl)C(Cl)(Cl)Cl)c1cccc([N+](=O)[O-])c1 (stereo not drawn) | 12.6 µM [rising, partial curve, poor fit] | 0.01 µM [rising, full curve, poor fit]
12 | Cc1ccc(N/C(SCc2ccccc2C)=C(/C#N)C(=O)NCc2ccco2)cc1C | 12.6 µM [rising, partial curve] | 8.91 µM [rising, partial curve]
13 | CC(C)[C@H](NC(=O)c1ccccc1)C(=O)OCC(=O)c1ccccc1F | 31.6 µM [falling, partial curve, poor fit] | –
14 | C[C@H]1Cc2c(COc3ccccc3)nc3c(c2CO1)CN(C(=O)Cc1cccs1)CC3 | 0.00355 µM [falling, full curve, poor fit] | 0.0562 µM [falling, full curve, poor fit]
15 | CCOc1ccccc1NC(=O)COC(=O)c1cc(C(=O)OC)cc([N+](=O)[O-])c1 | – | 0.708 µM [falling, single point]
16 | CCc1c(-c2ccccc2)nc2ccccc2c1C(=O)NCCc1ccccc1 | 0.891 µM [falling, partial curve, poor fit] | 14.1 µM [falling, partial curve, poor fit]
17 | Cc1cnc(C(=O)OCC(=O)NC2CCCCC2)cn1 | 14.1 µM [rising, single point] | –
18 | O=C(Nc1ccc(Cn2nnc3ccccc32)cc1)c1ccco1 | 7.94 µM [rising, partial curve, poor fit] | 8.91 µM [rising, partial curve]
19 | COc1ccc2c(c1)CC(NC(=O)Nc1c(C)cc(C)cc1C)CO2 (stereo not drawn) | – | 5.62 µM [rising, single point]
20 | Clc1ccc(-c2cc(C3CCNCC3)[nH]n2)c(Cl)c1 | – | 35.5 µM [falling, single point]
21 | COC(=O)C1=C(N)N(c2ccccc2F)C2=C(C(=O)CC(C)(C)C2)C1c1ccc(OC)c(OC)c1 (stereo not drawn) | 0.2 µM [rising, full curve, poor fit] | 0.1 µM [rising, full curve, poor fit]
22 | CCc1ccc(NS(=O)(=O)c2ccc3[nH]cc(C(=O)NCC4CCCO4)c(=O)c3c2)cc1 (stereo not drawn) | – | 6.31 µM [rising, partial curve, poor fit]
23 | CCOc1cc(/C=C/c2cc(C(=O)O)c3ccccc3n2)ccc1OC | 31.6 µM [rising, single point] | –
24 | O=S(=O)(NC1CCCCC1Nc1ccc(Cl)cc1)c1ccccc1 (stereo not drawn) | 25.1 µM [rising, single point] | –
25 | NS(=O)(=O)c1ccc(NC(=O)c2cccc(Cl)c2)cc1 | – | 0.355 µM [rising, partial curve]
26 | CN(C)CCn1nnnc1SCC1=C(C(=O)O)N2C(=O)[C@@H](NC(=O)Cc3csc(N)n3)[C@@H]2SC1 | 14.1 µM [falling, single point] | –
27 | CC(=O)c1ccc(S(=O)(=O)Nc2cccc(-c3ccc4nncn4n3)c2)cc1 | 35.5 µM [rising, single point] | –

Reformatted: entries from further up.

| Row | Compound | AC50 [1] | AC50 [2] |
| --- | --- | --- | --- |
| 1 | Cc1ccc(CNC(=O)c2cc3c(C)nc4ccccc4c3o2)cc1 | 5.01 µM [rising, full curve] | – |
| 14 | C[C@H]1Cc2c(COc3ccccc3)nc3c(c2CO1)CN(C(=O)Cc1cccs1)CC3 | 0.00355 µM [falling, full curve, poor fit] | 0.0562 µM [falling, full curve, poor fit] |
| 25 | NS(=O)(=O)c1ccc(NC(=O)c2cccc(Cl)c2)cc1 | – | 0.355 µM [rising, partial curve] |

Next entries:

Row | Compound | AC50 [1] | AC50 [2]
28 | Cc1c(O)ccc2c3c(c(=O)oc12)CCC(C)C3 (stereo not drawn) | 15.8 µM [rising, single point] | –
29 | O=C(NCc1cccc(Cl)c1)c1cc(COc2ccc3ncccc3c2)on1 | 1.58 µM [falling, partial curve, poor fit] | 3.98 µM [falling, partial curve, poor fit]
30 | O=C(O)CCNS(=O)(=O)c1ccc2c(c1)Cc1ccccc1-2 | 3.55 µM [rising, full curve, poor fit] | –
31 | O=[N+]([O-])c1ccc(Oc2ccc(F)cc2Br)c2ccncc12 | – | 35.5 µM [rising, single point]
32 | O=C(C1CCCN(S(=O)(=O)c2cccc3nsnc23)C1)N1CCc2ccccc21 (stereo not drawn) | – | 6.31 µM [rising, single point]
33 | CCCOc1ccc(N2C(=O)CC(N(Cc3ccco3)C(C)=O)C2=O)cc1 (stereo not drawn) | 35.5 µM [rising, partial curve, poor fit] | 10 µM [rising, partial curve, poor fit]
34 | COc1cccc(Cn2c(=O)c(-c3cc(F)cc(F)c3)nc3cncnc32)c1 | 1.78 µM [falling, partial curve, poor fit] | 1.41 µM [falling, partial curve, poor fit]
35 | Cc1cc(S(=O)(=O)Nc2ccc(-c3ccc(N4CCCCC4)nn3)cc2)c(C)cc1Cl | – | 8.91 µM [falling, partial curve, poor fit]
36 | O=C(/C=C/c1ccc(Cl)cc1)Nc1ccc(CN2CCOCC2)cc1 | 8.91 µM [rising, partial curve] | 7.08 µM [rising, partial curve]
37 | CC(C)c1cnc2c(c1SCC(=O)Nc1ccccc1C(F)(F)F)c(=O)n(C)c(=O)n2C | 2.82 µM [rising, partial curve] | 1.41 µM [rising, partial curve]
38 | CCOc1ccc(NC(=O)CSc2nnc(-c3ccccc3Cl)n2Cc2ccco2)cc1 | 10 µM [rising, partial curve, poor fit] | –
39 | O=C1C(Nc2ccc(O)cc2)=C/C(=N/S(=O)(=O)c2cccs2)c2ccccc21 | 5.62 µM [falling, full curve] | 5.01 µM [falling, full curve]
40 | CNc1cc([N+](=O)[O-])ccc1N/C=C/C(=O)c1ccc2c(c1)OCO2 | 7.08 µM [rising, partial curve, poor fit] | –
41 | Cn1c(=O)cc(N2CCCCC2)[nH]c1=O | 0.1 µM [rising, full curve, poor fit] | –
42 | Cc1ccc(CN2CCSc3ccc(C(=O)N4CCN(c5ncccn5)CC4)cc32)cc1 | 20 µM [rising, single point] | 11.2 µM [rising, partial curve]
43 | CC(C)(C)c1nnc(NC(=S)Nc2ccccc2)s1 | 17.8 µM [falling, partial curve, poor fit] | 0.00708 µM [falling, full curve, poor fit]
44 | COc1ccc(S(=O)(=O)N2CC(C(=O)O)Oc3ccc(CC(=O)O)cc32)cc1 (stereo not drawn) | 0.891 µM [falling, full curve] | 0.631 µM [falling, full curve]
45 | O=C(Cc1c(O)c2ccccc2[nH]c1=O)NCc1ccccc1F | 5.62 µM [rising, single point] | –
46 | C/C(=N\NC(=O)c1ccc(CN(C)S(=O)(=O)c2ccc(C)cc2)cc1)c1ccc(OC(F)F)cc1 | 22.4 µM [rising, partial curve, poor fit] | 20 µM [rising, single point]
47 | COc1ccc2nc(Nc3nc4cc5c(cc4s3)OCO5)sc2c1 | 0.0251 µM [rising, full curve, poor fit] | –
48 | COc1ccc(OC)c(NC(=O)C2CCC(CNc3c(N4CCC(C)CC4)c(=O)c3=O)CC2)c1 (stereo not drawn) | – | 11.2 µM [falling, partial curve]
49 | COc1ccccc1NS(=O)(=O)c1ccc(Cl)c(NC(=S)NC(=O)C2CCCC2)c1 | 35.5 µM [rising, single point] | 11.2 µM [rising, partial curve, poor fit]
50 | O=C(/C=C/Nc1ccc(Nc2ccccc2)cc1)c1cccs1 | 8.91 µM [rising, partial curve, poor fit] | 0.0224 µM [rising, full curve, poor fit]
51 | Cc1ccc(C(=O)C(C)Oc2cccc(NC(=O)c3ccco3)c2)cc1 (stereo not drawn) | 35.5 µM [rising, single point] | –
52 | O=C(Nc1nnc(CSCc2ccccc2F)s1)c1cccc([N+](=O)[O-])c1 | 25.1 µM [rising, single point] | –
53 | COc1ccc(CN(C(=O)/C=C/C(=O)c2ccc(OC)cc2O)C(C(=O)NC2CCCCC2)c2ccncc2)cc1 (stereo not drawn) | 15.8 µM [rising, partial curve] | 11.2 µM [rising, single point]

Look-ups from the entries so far:
AC50 [1], `COc1ccc(S(=O)(=O)N2CC(C(=O)O)Oc3ccc(CC(=O)O)cc32)cc1` (stereo not drawn) is entered as 0.891 µM [falling, full curve]
AC50 [1], `CCCOc1ccc(N2C(=O)CC(N(Cc3ccco3)C(C)=O)C2=O)cc1` (stereo not drawn) is entered as 35.5 µM [rising, partial curve, poor fit]
